Results published in publication PMC6381116.
No constants are given. Whether binding was seen depends on the method and setting. Binding seen in cells or lysates may run through a third protein. For some of these results: Binding calls can cover weak binding; strength is not graded here. For some of these results: Where a sequence is shown, tags or fusion partners need not be part of it. Values belong to the molecule of their own block, whether it stands above or below them.

Experiments:
[1] = target: T1, N-venus:AGO2 (Arabidopsis thaliana) (UniProt Q9SHF3); test: split reporter; BiFC with nVenus and cCFP fusions co-infiltrated into N. benthamiana leaves; confocal microscopy of leaf epidermal cells after 60-70 h
T1 sequence: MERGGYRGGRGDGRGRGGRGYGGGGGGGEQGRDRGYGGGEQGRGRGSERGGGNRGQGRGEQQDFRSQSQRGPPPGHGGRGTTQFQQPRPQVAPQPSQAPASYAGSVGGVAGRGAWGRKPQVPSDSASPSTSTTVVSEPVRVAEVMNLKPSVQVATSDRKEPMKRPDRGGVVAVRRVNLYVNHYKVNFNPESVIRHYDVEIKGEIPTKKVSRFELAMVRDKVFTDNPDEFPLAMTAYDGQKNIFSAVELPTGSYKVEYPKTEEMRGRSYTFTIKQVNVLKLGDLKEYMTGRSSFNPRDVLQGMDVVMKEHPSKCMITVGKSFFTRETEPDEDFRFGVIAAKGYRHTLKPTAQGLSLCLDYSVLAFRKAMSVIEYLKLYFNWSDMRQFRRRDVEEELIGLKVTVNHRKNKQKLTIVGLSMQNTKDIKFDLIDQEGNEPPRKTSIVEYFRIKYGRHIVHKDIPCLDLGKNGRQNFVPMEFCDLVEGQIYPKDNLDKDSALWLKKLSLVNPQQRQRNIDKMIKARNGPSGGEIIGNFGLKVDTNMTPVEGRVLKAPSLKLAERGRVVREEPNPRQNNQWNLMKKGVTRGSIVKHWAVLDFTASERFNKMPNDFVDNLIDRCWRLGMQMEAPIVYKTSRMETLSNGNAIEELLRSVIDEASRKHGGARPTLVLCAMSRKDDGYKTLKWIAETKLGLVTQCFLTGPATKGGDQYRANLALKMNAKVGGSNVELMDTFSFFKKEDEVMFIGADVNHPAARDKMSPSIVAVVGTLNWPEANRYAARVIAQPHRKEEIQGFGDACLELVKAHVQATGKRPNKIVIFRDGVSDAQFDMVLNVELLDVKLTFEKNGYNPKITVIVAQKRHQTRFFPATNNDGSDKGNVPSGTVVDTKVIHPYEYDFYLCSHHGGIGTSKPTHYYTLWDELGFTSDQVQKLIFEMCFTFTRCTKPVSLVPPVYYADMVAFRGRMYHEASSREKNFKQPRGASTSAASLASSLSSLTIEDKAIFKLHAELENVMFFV

[2] = target: T2, GST:N170 AGO2 (Arabidopsis thaliana) (UniProt Q9SHF3); test: pull-down; matrix-bound GST-fusion proteins incubated with E. coli extracts containing HIS:PRMT5, 4 °C, 2 h; washed with 20 mM Tris/HCl pH 7.5, 150 mM NaCl, 5 mM EDTA, 1% Nonidet P-40, 0.5% sodium deoxycholate; anti-GST and anti-histidine blots; only the target purified
T2 sequence: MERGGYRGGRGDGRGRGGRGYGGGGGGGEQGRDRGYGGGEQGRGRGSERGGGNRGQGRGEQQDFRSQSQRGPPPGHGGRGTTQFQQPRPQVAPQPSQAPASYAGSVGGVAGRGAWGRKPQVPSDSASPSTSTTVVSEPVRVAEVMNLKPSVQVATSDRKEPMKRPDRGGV

[3] = target: T3, GST:Δ170 AGO2 (Arabidopsis thaliana) (UniProt Q9SHF3); test: as above
T3 sequence: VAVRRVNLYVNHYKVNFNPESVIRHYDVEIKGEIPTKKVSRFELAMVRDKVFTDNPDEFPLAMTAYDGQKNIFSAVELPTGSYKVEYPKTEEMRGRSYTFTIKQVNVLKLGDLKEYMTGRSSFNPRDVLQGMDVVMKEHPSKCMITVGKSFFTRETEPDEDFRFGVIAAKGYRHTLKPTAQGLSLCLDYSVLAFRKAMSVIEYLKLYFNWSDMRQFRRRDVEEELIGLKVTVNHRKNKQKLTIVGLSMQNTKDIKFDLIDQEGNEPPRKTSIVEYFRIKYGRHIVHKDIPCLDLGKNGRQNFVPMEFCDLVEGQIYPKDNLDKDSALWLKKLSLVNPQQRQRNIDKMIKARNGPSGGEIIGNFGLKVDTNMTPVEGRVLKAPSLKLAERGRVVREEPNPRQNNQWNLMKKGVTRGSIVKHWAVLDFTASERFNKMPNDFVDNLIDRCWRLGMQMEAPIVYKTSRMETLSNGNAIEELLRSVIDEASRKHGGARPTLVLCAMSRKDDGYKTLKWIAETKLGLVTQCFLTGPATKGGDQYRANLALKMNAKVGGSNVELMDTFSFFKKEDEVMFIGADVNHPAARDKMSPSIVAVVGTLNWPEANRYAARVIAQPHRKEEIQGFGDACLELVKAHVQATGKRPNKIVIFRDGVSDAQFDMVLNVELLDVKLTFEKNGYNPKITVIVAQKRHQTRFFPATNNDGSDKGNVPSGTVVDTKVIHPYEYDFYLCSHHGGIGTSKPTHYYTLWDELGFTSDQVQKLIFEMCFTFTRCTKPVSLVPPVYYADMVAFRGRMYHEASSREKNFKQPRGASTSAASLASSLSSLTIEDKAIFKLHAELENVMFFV

[4] = target: T4, GST:AGO2 (full-length, recombinant) (Arabidopsis thaliana) (UniProt Q9SHF3); test: as above
T4 sequence: T1 sequence

[5] = target: Flag:PRMT5 (Arabidopsis thaliana); test: co-IP; transient co-expression in N. benthamiana; immunoprecipitated with anti-Flag antibody, blots probed with anti-Flag and anti-HA; extraction and wash buffers 20 mM Tris-HCl pH 7.5, 300 mM NaCl, 5 mM MgCl2, 4 °C

Molecule: c-CFP:PRMT5 (Arabidopsis thaliana) (enzyme)
binding [1]: binds

Molecule: c-CFP:HSP90
binding [1]: binds

Molecule: HIS:PRMT5 (Arabidopsis thaliana) (enzyme)
binding [2]: binds | binding [3]: no binding | binding [4]: binds

Further lines, results first:

binding [5]: binds
B1: HA:AGO2 (CaMV35S promoter, pMDC32) (protein, UniProt Q9SHF3 1-1014)
chain: T1 sequence

binding [5]: no binding
B2: HA:AGO10 (protein, UniProt Q9XGW1 1-988)
chain: MPIRQMKDSSETHLVIKTQPLKHHNPKTVQNGKIPPPSPSPVTVTTPATVTQSQASSPSPPSKNRSRRRNRGGRKSDQGDVCMRPSSRPRKPPPPSQTTSSAVSVATAGEIVAVNHQMQMGVRKNSNFAPRPGFGTLGTKCIVKANHFLADLPTKDLNQYDVTITPEVSSKSVNRAIIAELVRLYKESDLGRRLPAYDGRKSLYTAGELPFTWKEFSVKIVDEDDGIINGPKRERSYKVAIKFVARANMHHLGEFLAGKRADCPQEAVQILDIVLRELSVKRFCPVGRSFFSPDIKTPQRLGEGLESWCGFYQSIRPTQMGLSLNIDMASAAFIEPLPVIEFVAQLLGKDVLSKPLSDSDRVKIKKGLRGVKVEVTHRANVRRKYRVAGLTTQPTRELMFPVDENCTMKSVIEYFQEMYGFTIQHTHLPCLQVGNQKKASYLPMEACKIVEGQRYTKRLNEKQITALLKVTCQRPRDRENDILRTVQHNAYDQDPYAKEFGMNISEKLASVEARILPAPWLKYHENGKEKDCLPQVGQWNMMNKKMINGMTVSRWACVNFSRSVQENVARGFCNELGQMCEVSGMEFNPEPVIPIYSARPDQVEKALKHVYHTSMNKTKGKELELLLAILPDNNGSLYGDLKRICETELGLISQCCLTKHVFKISKQYLANVSLKINVKMGGRNTVLVDAISCRIPLVSDIPTIIFGADVTHPENGEESSPSIAAVVASQDWPEVTKYAGLVCAQAHRQELIQDLYKTWQDPVRGTVSGGMIRDLLISFRKATGQKPLRIIFYRDGVSEGQFYQVLLYELDAIRKACASLEPNYQPPVTFIVVQKRHHTRLFANNHRDKNSTDRSGNILPGTVVDTKICHPTEFDFYLCSHAGIQGTSRPAHYHVLWDENNFTADGIQSLTNNLCYTYARCTRSVSIVPPAYYAHLAAFRARFYLEPEIMQDNGSPGKKNTKTTTVGDVGVKPLPALKENVKRVMFYC
